Measured values from publication PMC9040568.
The exact form of at least one protein or probe is not confirmed.

Biological target: 6xHis-RepB(pAMI4) (UniProt S5YGU8)
Experiment: EMSA
Settings: salmon sperm competitor DNA, 10 mM MgCl2, three complexes, concentration dependent, 40 mM Tris-HCl pH 8.0, 10 mM MgCl2, 1 mM DTT, 100 mM KCl, 10% BSA, room temperature, 1 pmol FAM-DNA, 5% PAGE in 0.5x TBE, recombinant protein, residues 1-307, protein details: N-terminal 6xHis (pET28b(+), NdeI/HindIII), label: FAM (on M13pUCr primer), probe letters rebuilt from the primers and the genome, part of a longer molecule

Sequence: CTTATGGGATTCATCGCCGCTGTTGACAGCTGTCAACTCGTGTTGAAGCGTCGCTATAAAAAAGATAATTACCACTAATATACTGATATAATCATATTTTATTAAATTTATGTCCACACCCATGAGAACCCAAATGCCGTCACCCTGGCCCCGCATCCATCCCTCGCAATCCAACCAAGGCGAGCGGCTCCCGCATACACCATAGCTCAGCCTGAGATCCAACACGCGACCGCACAATCTGTGACCCAGCCAAAAAACTCTAAAGAACCCATTCGTCGGCGACGAGTTGACAGCTGTCAACGAGGCTGGTGAACGGAATCCGACAACCGCAAATGCGCCTCCCCCTCTCTGCGCAATCTCTCCGCGGCAGCACTCGCAAAACCGCCTCGGCACAAAGCATGAGTTCAACTGTCGAAGGCATCACAACTTGCAAACGAAGGACCCGAAGTTCGGCCAGCCCGACACCGCAAGAGAGCTCGGTTGACAGCTGTCAACTCGGGCTGGCTCGCGACAGATTTG (double strand) [3parS region]
- binding result: binds
